According to publication doi:10.1101/2025.07.02.662713:
Results are given in words; binding and its absence hold for the method and conditions named. Some entries that bind do so weakly or less than the wild type. Sequences can lack the tags named with a protein.

Protein sequences, listed by entry. Tags and fused reporters are not part of them.
UniProt Q9UGN5: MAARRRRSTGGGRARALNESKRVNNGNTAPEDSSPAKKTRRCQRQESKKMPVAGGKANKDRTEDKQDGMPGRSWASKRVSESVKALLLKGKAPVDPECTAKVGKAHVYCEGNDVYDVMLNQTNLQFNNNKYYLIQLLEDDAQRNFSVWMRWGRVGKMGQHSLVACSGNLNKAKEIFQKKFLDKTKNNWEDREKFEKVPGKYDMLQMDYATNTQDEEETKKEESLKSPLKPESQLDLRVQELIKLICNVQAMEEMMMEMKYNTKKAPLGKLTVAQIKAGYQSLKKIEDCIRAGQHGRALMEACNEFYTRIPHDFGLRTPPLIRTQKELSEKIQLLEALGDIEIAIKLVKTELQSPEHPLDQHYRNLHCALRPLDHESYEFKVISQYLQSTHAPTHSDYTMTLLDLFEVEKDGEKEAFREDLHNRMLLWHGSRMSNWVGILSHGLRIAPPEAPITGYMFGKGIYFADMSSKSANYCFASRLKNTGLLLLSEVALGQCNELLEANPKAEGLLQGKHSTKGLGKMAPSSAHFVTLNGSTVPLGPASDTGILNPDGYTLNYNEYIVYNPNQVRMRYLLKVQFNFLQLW

Molecular target: T1, CFP-MtbDarG MD (mCerulean-fused macrodomain of Mycobacterium tuberculosis DNA ADP-ribosylglycohydrolase DarG) (M. tuberculosis) (UniProt O53605)
T1 sequence: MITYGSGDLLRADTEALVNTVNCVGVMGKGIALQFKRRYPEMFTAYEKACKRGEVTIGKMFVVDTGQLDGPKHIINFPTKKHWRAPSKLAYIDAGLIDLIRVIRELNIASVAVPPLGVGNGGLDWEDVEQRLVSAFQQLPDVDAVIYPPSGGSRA
Assay: FRET or BRET

PARylated PARP2 (from UniProt Q9UGN5 1-583) (enzyme)
binding: binds
